Substitutions are numbered along the chain they refer to. For at least one entry, the source does not settle the construct or the ends of the probe. For some of these results: Weaker means in comparison with the reference protein, sequence or condition of that experiment. Protein sequences can lack the tags named with them.
Experiments:
Experiment in all cases: enzyme reaction in vitro
[1] = system: T1, BsmI R359D (Bacillus stearothermophilus NUB36); conditions: low nicking activity, low ds-DNA cleavage; protein in an extract; only the site is given
T1 sequence: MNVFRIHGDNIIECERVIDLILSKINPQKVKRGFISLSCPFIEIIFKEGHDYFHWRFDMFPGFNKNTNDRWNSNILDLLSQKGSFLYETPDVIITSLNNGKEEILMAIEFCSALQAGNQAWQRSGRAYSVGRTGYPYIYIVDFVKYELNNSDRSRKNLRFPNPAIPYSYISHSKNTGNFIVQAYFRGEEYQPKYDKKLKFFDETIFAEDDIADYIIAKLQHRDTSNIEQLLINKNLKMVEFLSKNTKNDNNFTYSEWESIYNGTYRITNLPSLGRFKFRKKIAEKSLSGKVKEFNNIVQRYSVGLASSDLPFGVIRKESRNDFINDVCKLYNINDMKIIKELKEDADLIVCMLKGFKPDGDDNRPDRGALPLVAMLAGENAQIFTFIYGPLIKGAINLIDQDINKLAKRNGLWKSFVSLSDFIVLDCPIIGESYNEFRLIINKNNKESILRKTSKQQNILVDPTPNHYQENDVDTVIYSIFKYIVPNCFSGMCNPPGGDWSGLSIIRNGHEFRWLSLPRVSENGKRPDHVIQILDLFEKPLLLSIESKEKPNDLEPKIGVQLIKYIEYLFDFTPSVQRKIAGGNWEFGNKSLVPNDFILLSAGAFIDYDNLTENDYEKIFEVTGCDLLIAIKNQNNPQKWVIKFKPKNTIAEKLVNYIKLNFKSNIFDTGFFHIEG

[2] = system: T2, BsmI R186D (Bacillus stearothermophilus NUB36); conditions: low nicking activity, low ds-DNA cleavage; protein in an extract; only the site is given
T2 sequence: T1 sequence with R186D, D359R

[3] = system: T3, BsmI R578D (Bacillus stearothermophilus NUB36); conditions: ds-DNA cleavage; protein in an extract; only the site is given
T3 sequence: T1 sequence with D359R, R578D

[4] = system: T4, BsmI R320D (Bacillus stearothermophilus NUB36); conditions: ds-DNA cleavage; protein in an extract; only the site is given
T4 sequence: T1 sequence with R320D, D359R

Q: Which results are given for “GCATTC [pBR322 supercoiled plasmid (one BsmI site)]”?
A: activity on this sequence [1]: less active; activity on this sequence [2]: less active; activity on this sequence [3]: active; activity on this sequence [4]: active

— patent US20080213860
